Data source: PubChem BioAssay AID1259405 (NCATS, 2018)

- Test: 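Mouse-designed siRNAs used to find CHO productivity engineering targets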 (primary screen)
- Cell system: Chinese hamster CHO-K1 ovary cells with stable secreted eGFP expression
- Reagents: single siRNA against mouse genes, 0.8 pmol siRNA per well (2 µl of 400 nM stock)
- Timing: 3 days
- Detection: 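Per-well intracellular GFP measured by laser scanning cytometry, plus viability from ATP luminescence, each relative to plate median of non-targeting control wells, in %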
- Scale: GFP, % of control: higher = more GFP per well, higher productivity; viability (ATP), % of control: higher = more viable cells (more ATP)
- Hit rule: 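Called active when intracellular GFP, relative to negative control, is at or above 120%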
Here is one part, drawn at random, of about 50,000 reagents. In the full data, about 4,000 (8%) were called active. 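Mouse siRNA library applied to hamster cells; one well for each siRNA.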 Entries without a mark were called inactive. The numbers tell different reagents against one gene apart.

Against Map2k3 (GeneID 26397) #1, the entry reads GFP, % of control 141 (active); viability (ATP), % of control 57.3.
Map2k3 (GeneID 26397) #2 gave GFP, % of control 39.1; viability (ATP), % of control 18.7.
For Map2k3 (GeneID 26397) #3, the entry reads GFP, % of control 76.3; viability (ATP), % of control 72.3.
Rspo4 (GeneID 228770) #1 showed GFP, % of control 131 (active); viability (ATP), % of control 69.4.
For Rspo4 (GeneID 228770) #2, the values are GFP, % of control 38.7; viability (ATP), % of control 51.8.
Against Rspo4 (GeneID 228770) #3, the entry reads GFP, % of control 85.1; viability (ATP), % of control 70.
With knock-down of Mat2b (GeneID 108645) #1, the record shows GFP, % of control 99.7; viability (ATP), % of control 85.9.
Knock-down of Mat2b (GeneID 108645) #2 resulted in: GFP, % of control 72.9; viability (ATP), % of control 57.8.
For Mat2b (GeneID 108645) #3, the values are GFP, % of control 50.2; viability (ATP), % of control 75.8.
Depletion of Nectin2 (GeneID 19294) #1 resulted in: GFP, % of control 34.4; viability (ATP), % of control 28.3.
For Nectin2 (GeneID 19294) #2 the deposit lists GFP, % of control 105; viability (ATP), % of control 91.2.
Knock-down of Nectin2 (GeneID 19294) #3 resulted in: GFP, % of control 58.9; viability (ATP), % of control 80.2.
Knock-down of Eppk1 (GeneID 223650) #1 gave: GFP, % of control 68.1; viability (ATP), % of control 83.3.
With knock-down of Eppk1 (GeneID 223650) #2, the record shows GFP, % of control 104; viability (ATP), % of control 94.6.
Eppk1 (GeneID 223650) #3 gave GFP, % of control 75.2; viability (ATP), % of control 92.1.
Depletion of Zxda (GeneID 668171) #1 gave: GFP, % of control 56.9; viability (ATP), % of control 65.4.
With knock-down of Zxda (GeneID 668171) #2, the record shows GFP, % of control 61.1; viability (ATP), % of control 91.1.
Zxda (GeneID 668171) #3 showed GFP, % of control 42.3; viability (ATP), % of control 53.1.
For Tmprss3 (GeneID 140765) #1 the deposit lists GFP, % of control 112; viability (ATP), % of control 106.
With knock-down of Tmprss3 (GeneID 140765) #2 the results were GFP, % of control 76.3; viability (ATP), % of control 45.3.
For Tmprss3 (GeneID 140765) #3, the values are GFP, % of control 57.3; viability (ATP), % of control 64.2.
With knock-down of Plin2 (GeneID 11520) #1, the screen gave GFP, % of control 97.9; viability (ATP), % of control 75.4.
After knock-down of Plin2 (GeneID 11520) #2, the screen gave GFP, % of control 120 (active); viability (ATP), % of control 76.7.
With knock-down of Plin2 (GeneID 11520) #3, the record shows GFP, % of control 53.5; viability (ATP), % of control 81.5.

Not a retest: an excerpt of the list.
Nectin2 (GeneID 19294) #2 — GFP, % of control: 105; viability (ATP), % of control: 91.2
Nectin2 (GeneID 19294) #3 — GFP, % of control: 58.9; viability (ATP), % of control: 80.2
Eppk1 (GeneID 223650) #1 — GFP, % of control: 68.1; viability (ATP), % of control: 83.3
Eppk1 (GeneID 223650) #2 — GFP, % of control: 104; viability (ATP), % of control: 94.6
Eppk1 (GeneID 223650) #3 — GFP, % of control: 75.2; viability (ATP), % of control: 92.1
Zxda (GeneID 668171) #1 — GFP, % of control: 56.9; viability (ATP), % of control: 65.4

The results go on.
Knock-down of Prss58 (GeneID 232717) #1 resulted in: GFP, % of control 73.5; viability (ATP), % of control 93.9.
With knock-down of Prss58 (GeneID 232717) #2, the record shows GFP, % of control 51.4; viability (ATP), % of control 57.5.
After knock-down of Prss58 (GeneID 232717) #3, the screen gave GFP, % of control 84.8; viability (ATP), % of control 99.1.
A730036I17Rik (GeneID 329513) #1 gave GFP, % of control 34.8; viability (ATP), % of control 64.8.
A730036I17Rik (GeneID 329513) #2 scored GFP, % of control 29.7; viability (ATP), % of control 36.4.
Depletion of A730036I17Rik (GeneID 329513) #3 gave: GFP, % of control 76.3; viability (ATP), % of control 87.5.
Dot1l (GeneID 208266) #1 gave GFP, % of control 144 (active); viability (ATP), % of control 91.3.
For Dot1l (GeneID 208266) #2, the values are GFP, % of control 45.3; viability (ATP), % of control 104.
After knock-down of Dot1l (GeneID 208266) #3 the results were GFP, % of control 89.4; viability (ATP), % of control 107.
Socs3 (GeneID 12702) #1 gave GFP, % of control 93.5; viability (ATP), % of control 95.2.
Socs3 (GeneID 12702) #2 gave GFP, % of control 77.8; viability (ATP), % of control 91.2.
Knock-down of Socs3 (GeneID 12702) #3 resulted in: GFP, % of control 102; viability (ATP), % of control 85.4.
Against Wdfy1 (GeneID 69368) #1, the values are GFP, % of control 85.3; viability (ATP), % of control 80.6.
Knock-down of Wdfy1 (GeneID 69368) #2 gave: GFP, % of control 77.7; viability (ATP), % of control 70.8.
Wdfy1 (GeneID 69368) #3 showed GFP, % of control 52.7; viability (ATP), % of control 53.9.
For Rest (GeneID 19712) #1 the deposit lists GFP, % of control 97.1; viability (ATP), % of control 67.6.
For Rest (GeneID 19712) #2 the deposit lists GFP, % of control 111; viability (ATP), % of control 74.5.
Silencing of Rest (GeneID 19712) #3 gave: GFP, % of control 114; viability (ATP), % of control 108.
Gm5089 (GeneID 328479) #1 gave GFP, % of control 110; viability (ATP), % of control 79.5.
Against Gm5089 (GeneID 328479) #2 the deposit lists GFP, % of control 121 (active); viability (ATP), % of control 94.3.
With knock-down of Gm5089 (GeneID 328479) #3, the screen gave GFP, % of control 99.9; viability (ATP), % of control 75.8.
Depletion of Vstm2a (GeneID 211739) #1 resulted in: GFP, % of control 89.1; viability (ATP), % of control 85.3.
Vstm2a (GeneID 211739) #2 scored GFP, % of control 67.8; viability (ATP), % of control 93.
For Vstm2a (GeneID 211739) #3, the entry reads GFP, % of control 83.2; viability (ATP), % of control 91.8.
Depletion of Nagpa (GeneID 27426) #1 resulted in: GFP, % of control 47.5; viability (ATP), % of control 37.1.
Nagpa (GeneID 27426) #2 showed GFP, % of control 64.8; viability (ATP), % of control 79.9.
Knock-down of Nagpa (GeneID 27426) #3 gave: GFP, % of control 56.6; viability (ATP), % of control 73.3.
U90926 (GeneID 57425) #1 scored GFP, % of control 55.3; viability (ATP), % of control 62.1.
Knock-down of U90926 (GeneID 57425) #2 resulted in: GFP, % of control 129 (active); viability (ATP), % of control 83.9.
U90926 (GeneID 57425) #3 gave GFP, % of control 96.6; viability (ATP), % of control 93.5.
